{
  "source": "ChEMBL document CHEMBL3351435",
  "about": "“New pyrrole derivatives with potent tubulin polymerization inhibiting activity as anticancer agents including hedgehog-dependent cancer” (J Med Chem, 2014)",
  "key": {"[1]": {"assay": "Cytotoxicity against human MESSA cells assessed as growth inhibition after 72 hrs by CellTitre-Glo assay", "format": "functional, cell-based", "details": "MES-SA"}, "[2]": {"assay": "Cytotoxicity against human MESSA/DX5 cells assessed as growth inhibition after 72 hrs by CellTitre-Glo assay", "format": "functional, cell-based", "details": "MES-SA/Dx5, 72 h"}},
  "data": [
    {"smiles": "COc1cc2c(c(OC)c1OC)-c1ccc(OC)c(=O)cc1[C@@H](NC(C)=O)CC2", "note": "[COLCHICINE]", "values": [
      {"measurement": "IC50", "setting": "[1]", "result": 11, "unit": "nM"},
      {"measurement": "IC50", "setting": "[2]", "result": 329, "unit": "nM"}
    ]}
  ]
}
